Consider five substances from paper PMC9174988.

Chains of the proteins cited; added tags and fusions are not shown.
UniProt P60879: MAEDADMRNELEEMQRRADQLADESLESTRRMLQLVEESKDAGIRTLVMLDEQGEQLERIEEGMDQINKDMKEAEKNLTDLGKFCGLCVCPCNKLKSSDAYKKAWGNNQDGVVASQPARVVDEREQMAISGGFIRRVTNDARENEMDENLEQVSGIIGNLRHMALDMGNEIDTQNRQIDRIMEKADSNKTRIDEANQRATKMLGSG
UniProt P61264: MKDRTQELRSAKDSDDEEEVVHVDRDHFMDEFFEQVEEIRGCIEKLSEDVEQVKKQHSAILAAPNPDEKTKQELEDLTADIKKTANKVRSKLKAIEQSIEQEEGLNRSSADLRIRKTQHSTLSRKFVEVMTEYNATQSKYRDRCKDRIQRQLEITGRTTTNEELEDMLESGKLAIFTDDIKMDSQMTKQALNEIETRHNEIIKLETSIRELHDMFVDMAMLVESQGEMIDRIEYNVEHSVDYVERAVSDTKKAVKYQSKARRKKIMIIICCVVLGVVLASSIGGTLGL
UniProt Q9Z1G4: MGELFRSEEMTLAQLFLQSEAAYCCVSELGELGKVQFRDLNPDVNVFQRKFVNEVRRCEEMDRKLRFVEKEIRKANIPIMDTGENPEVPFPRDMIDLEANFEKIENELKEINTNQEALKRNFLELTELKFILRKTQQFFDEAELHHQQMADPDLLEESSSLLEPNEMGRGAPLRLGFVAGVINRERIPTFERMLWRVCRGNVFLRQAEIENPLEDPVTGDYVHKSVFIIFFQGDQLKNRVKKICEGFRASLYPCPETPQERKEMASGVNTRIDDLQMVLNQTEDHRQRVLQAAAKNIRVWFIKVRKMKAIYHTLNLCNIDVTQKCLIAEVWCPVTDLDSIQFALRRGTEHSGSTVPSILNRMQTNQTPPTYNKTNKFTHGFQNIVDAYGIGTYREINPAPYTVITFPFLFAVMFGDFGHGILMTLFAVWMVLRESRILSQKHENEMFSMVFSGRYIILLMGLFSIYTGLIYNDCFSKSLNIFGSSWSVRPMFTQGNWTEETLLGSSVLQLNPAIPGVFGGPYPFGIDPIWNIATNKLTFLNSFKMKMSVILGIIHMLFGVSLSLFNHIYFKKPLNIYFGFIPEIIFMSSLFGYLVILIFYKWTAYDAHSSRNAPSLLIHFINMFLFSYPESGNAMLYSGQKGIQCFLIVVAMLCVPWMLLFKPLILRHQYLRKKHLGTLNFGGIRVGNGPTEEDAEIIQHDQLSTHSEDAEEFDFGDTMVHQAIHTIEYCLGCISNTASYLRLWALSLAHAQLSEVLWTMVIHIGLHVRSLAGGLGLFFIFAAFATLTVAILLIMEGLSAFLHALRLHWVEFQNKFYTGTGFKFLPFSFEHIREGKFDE
UniProt Q8BVE3: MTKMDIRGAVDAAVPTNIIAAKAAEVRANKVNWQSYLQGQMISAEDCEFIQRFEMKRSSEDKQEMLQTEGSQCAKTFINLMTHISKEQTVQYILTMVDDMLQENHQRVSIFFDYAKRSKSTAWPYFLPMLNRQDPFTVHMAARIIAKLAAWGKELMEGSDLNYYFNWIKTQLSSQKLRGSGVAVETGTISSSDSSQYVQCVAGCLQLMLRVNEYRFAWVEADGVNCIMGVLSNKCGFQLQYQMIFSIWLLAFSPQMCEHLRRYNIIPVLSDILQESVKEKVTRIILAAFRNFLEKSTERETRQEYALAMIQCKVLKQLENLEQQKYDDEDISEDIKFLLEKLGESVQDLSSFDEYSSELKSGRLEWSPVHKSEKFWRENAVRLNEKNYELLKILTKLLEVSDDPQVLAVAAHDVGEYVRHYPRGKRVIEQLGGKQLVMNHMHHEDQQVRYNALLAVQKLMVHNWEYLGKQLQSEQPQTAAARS

Results are given in words; binding and its absence hold for the method and conditions named. In cells and extracts the contact can be indirect. Some entries that bind do so weakly or less than the wild type. For part of these data: Tags and fused reporters may be left off the sequences shown.

Assay [1] concerns the target T1, hCLN6 (AAV9-hCLN6 transgene) (human) (UniProt Q9NWW5).
T1 sequence: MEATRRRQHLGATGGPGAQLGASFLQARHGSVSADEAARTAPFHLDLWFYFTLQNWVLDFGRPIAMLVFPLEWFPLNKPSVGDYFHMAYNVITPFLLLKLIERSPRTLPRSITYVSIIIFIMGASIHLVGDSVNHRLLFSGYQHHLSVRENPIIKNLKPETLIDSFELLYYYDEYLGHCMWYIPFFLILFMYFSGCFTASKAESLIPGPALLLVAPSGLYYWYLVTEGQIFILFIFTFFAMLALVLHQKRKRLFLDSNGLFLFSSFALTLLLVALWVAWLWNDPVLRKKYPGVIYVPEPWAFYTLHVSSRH
The assay can be described thus: co-IP; hCLN6 (AAV9-hCLN6 representatives) immunoprecipitation; Western blot of partners; input ~3% of total protein loaded on IPs. (In general: In western blotting, separated proteins are transferred to a membrane and probed.)

Assay [2] concerns the target Synaptosome associated protein 25 (mouse (endogenous in mouse cortex)) (UniProt P60879). The assay is described as follows: co-IP; P30 mouse brain (cortex) lysate of wild type, Cln3Δex7/8, Cln6nclf and Cln8mnd mice immunoprecipitated with anti-SNAP25 antibody; blots for STX1B, STX1 and VAMP; input ~3%.
Assay [3] deals with T2, CLN3 (tagged CLN3 expression plasmid) (UniProt Q13286).
T2 sequence: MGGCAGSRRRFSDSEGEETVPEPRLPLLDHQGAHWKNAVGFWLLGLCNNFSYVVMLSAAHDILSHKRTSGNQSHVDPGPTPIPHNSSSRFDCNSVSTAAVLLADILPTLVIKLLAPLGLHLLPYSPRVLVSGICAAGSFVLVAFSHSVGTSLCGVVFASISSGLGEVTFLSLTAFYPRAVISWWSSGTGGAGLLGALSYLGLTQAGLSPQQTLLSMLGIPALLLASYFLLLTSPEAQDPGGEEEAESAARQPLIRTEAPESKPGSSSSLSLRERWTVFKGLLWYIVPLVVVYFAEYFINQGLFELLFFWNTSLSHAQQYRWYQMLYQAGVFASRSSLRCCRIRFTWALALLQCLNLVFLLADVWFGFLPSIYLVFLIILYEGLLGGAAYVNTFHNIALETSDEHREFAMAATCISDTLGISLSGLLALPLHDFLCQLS
The assay is described as follows: co-IP; tagged CLN3 or CLN8 expression plasmids used for immunoprecipitation; Western blot of partners; input ~3% of total protein loaded on IPs.

Assay [4] concerns the target CLN8 (tagged CLN8 expression plasmid) (UniProt Q9UBY8). The description is as above.

On to “STX1B (mouse cortex) (from UniProt P61264 1-288)”, for which the binding entry in assay [1] and in assay [2] was “binds” in each case.
Turning to “STX1B (in neuroblastoma cells) (from UniProt P61264 1-288)”, the binding result in assay [3] was “binds”.
Consider “ATP6V0A1 (mouse cortex) (from UniProt Q9Z1G4 1-839)”, for which the binding result in assay [1] is “binds”.
In the case of “ATPase H+ Transporting V1 Subunit H (mouse cortex) (from UniProt Q8BVE3 1-483)”, in assay [1], the binding result is recorded as “binds”.
Take “ATPase H+ Transporting V1 Subunit H (in neuroblastoma cells) (from UniProt Q8BVE3 1-483)”: in assay [4], the binding entry is “binds”.
